Source: publication PMC4836198
These are yes or no findings as the source states them, for the method shown. For some assays here: Binding can be weak; no strength is given. For some assays here: Where a sequence is shown, tags or fusion partners need not be part of it. For some assays here: In cells and extracts the contact can be indirect. Blank lines part the entries; values can stand above or below the molecule they belong to.

Experiments:
GST-Rab11 = target: T1, GST-Rab11 (UniProt O18335); assay: pull-down; 20 ug GST-Rab11 on beads with 200 ng Nuf FL (GST removed), 2 h, 4 C, Rab11 interaction buffer (PBS, 2 mM DTT); then 0, 50 or 200 ng PKCz for 2 h; blot anti-Nuf; both purified
T1 sequence: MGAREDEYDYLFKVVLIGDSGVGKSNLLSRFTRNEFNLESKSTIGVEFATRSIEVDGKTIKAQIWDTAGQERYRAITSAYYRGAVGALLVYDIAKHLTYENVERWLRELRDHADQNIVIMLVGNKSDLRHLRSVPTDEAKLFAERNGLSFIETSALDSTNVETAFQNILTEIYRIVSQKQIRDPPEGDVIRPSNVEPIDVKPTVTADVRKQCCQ

[1] = target: T2, Flag-aPKC^KD (aPKC kinase domain, Tetra-Tag construct) (Drosophila) (UniProt A1Z9X0); assay: pull-down; Flag-aPKC^KD or Flag-aPKC^KD-mut purified with magnetic beads from embryonic extracts, then incubated with purified recombinant Nuf-GST; blot anti-Nuf; both purified
T2 sequence: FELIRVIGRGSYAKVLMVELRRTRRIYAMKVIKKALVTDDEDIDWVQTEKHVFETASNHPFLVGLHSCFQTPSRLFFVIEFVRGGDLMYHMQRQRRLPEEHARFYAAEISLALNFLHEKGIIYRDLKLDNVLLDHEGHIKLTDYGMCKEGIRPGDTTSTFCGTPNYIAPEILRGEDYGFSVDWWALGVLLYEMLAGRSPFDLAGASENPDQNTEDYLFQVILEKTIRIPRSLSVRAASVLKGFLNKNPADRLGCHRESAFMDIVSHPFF

[2] = target: T2, Flag-aPKC^KD (aPKC kinase domain, Tetra-Tag construct) (Drosophila); assay: pull-down; Flag-aPKC^KD or Flag-aPKC^RD bound to magnetic beads, incubated with embryonic extracts; blot anti-Nuf; only the target purified
[3] = target: GST-Nuf amino-terminal domain (1-241), wild type (Drosophila); assay: pull-down; 30 ug GST or GST-Nuf fusion on glutathione beads with 300 ug Drosophila embryo extract, 4 h, 4 C, lysis buffer (50 mM Tris HCl pH 7.5, 150 mM NaCl, 1 % Triton X-100); immunoblot of bound proteins; only the target purified
[4] = target: GST-Nuf carboxy-terminal domain (Drosophila); assay: as above
[5] = target: GST-Nuf full length S155A (Drosophila); assay: as above
[6] = target: GST-Nuf full length S155D (Drosophila); assay: as above
[7] = target: GST-Nuf full length, wild type (Drosophila); assay: as above
[8] = target: GST-Nuf full length, wild type (Drosophila); assay: pull-down; 20 ug GST or Nuf-GST on glutathione beads with 0.25 ug recombinant PKCz in lysis buffer, 2 h, 4 C; washes PBS with 0.5 M NaCl; blot anti-aPKC; both purified

Molecule: NufFL S155D, GST removed (Drosophila)
binding (GST-Rab11): binds

Molecule: NufFL S155A, GST removed (Drosophila)
binding (GST-Rab11): binds

B1: aPKC, endogenous (enzyme, UniProt A1Z9X0 1-606)
chain: MQKMPSQILNDGSSVSLNSASMNMANTPNSITVKTAYNGQIIITTINKNISYEELCYEIRNICRFPLDQPFTIKWVDEENDPCTISTKMELDEAIRLYEMNFDSQLVIHVFPNVPQAPGLSCDGEDRSIYRRGARRWRKLYRVNGHIFQAKRFNRRAFCAYCQDRIWGLGRQGFKCIQCKLLVHKKCHKLVQKHCTDQPEPLVKERAEESSDPIPVPLPPLPYEAMSGGAEACETHDHAHIVAPPPPEDPLEPGTQRQYSLNDFELIRVIGRGSYAKVLMVELRRTRRIYAMKVIKKALVTDDEDIDWVQTEKHVFETASNHPFLVGLHSCFQTPSRLFFVIEFVRGGDLMYHMQRQRRLPEEHARFYAAEISLALNFLHEKGIIYRDLKLDNVLLDHEGHIKLTDYGMCKEGIRPGDTTSTFCGTPNYIAPEILRGEDYGFSVDWWALGVLLYEMLAGRSPFDLAGASENPDQNTEDYLFQVILEKTIRIPRSLSVRAASVLKGFLNKNPADRLGCHRESAFMDIVSHPFFKNMDWELLERKQVTPPFKPRLDSDRDLANFPPEFTGEAVQLTPDDDHVIDNIDQSEFEGFEYVNPLLMSLEDCV
binding [3]: binds
binding [4]: no binding
binding [5]: binds
binding [6]: no binding
binding [7]: binds

Second part, the molecule after the results:

binding [1]: binds
Molecule: GST-Nuf full length, wild type (Drosophila)

binding [2]: binds
Molecule: Nuclear Fallout (Nuf), endogenous (Drosophila (endogenous in embryos))

binding (GST-Rab11): binds
Molecule: NufFL wt, GST removed (Drosophila)

binding [8]: binds
B2: PKCz (PRKCz Recombinant Human Protein) (enzyme, UniProt Q05513 1-592)
chain: MPSRTGPKMEGSGGRVRLKAHYGGDIFITSVDAATTFEELCEEVRDMCRLHQQHPLTLKWVDSEGDPCTVSSQMELEEAFRLARQCRDEGLIIHVFPSTPEQPGLPCPGEDKSIYRRGARRWRKLYRANGHLFQAKRFNRRAYCGQCSERIWGLARQGYRCINCKLLVHKRCHGLVPLTCRKHMDSVMPSQEPPVDDKNEDADLPSEETDGIAYISSSRKHDSIKDDSEDLKPVIDGMDGIKISQGLGLQDFDLIRVIGRGSYAKVLLVRLKKNDQIYAMKVVKKELVHDDEDIDWVQTEKHVFEQASSNPFLVGLHSCFQTTSRLFLVIEYVNGGDLMFHMQRQRKLPEEHARFYAAEICIALNFLHERGIIYRDLKLDNVLLDADGHIKLTDYGMCKEGLGPGDTTSTFCGTPNYIAPEILRGEEYGFSVDWWALGVLMFEMMAGRSPFDIITDNPDMNTEDYLFQVILEKPIRIPRFLSVKASHVLKGFLNKDPKERLGCRPQTGFSDIKSHAFFRSIDWDLLEKKQALPPFQPQITDDYGLDNFDTQFTSEPVQLTPDDEDAIKRIDQSEFEGFEYINPLLLSTEESV
